Measurements: article PMC5727187, “Insights into the structure and assembly of a bacterial cellulose secretion system” (Nature Communications, 2017)
No constants are given. Whether binding was seen depends on the method and setting. Binding can be weak; no strength is given. Where a sequence is shown, tags or fusion partners need not be part of it.

Molecular target: T1, BcsG (two-hybrid fusion) (E. coli 1094) (UniProt P37659)
T1 sequence: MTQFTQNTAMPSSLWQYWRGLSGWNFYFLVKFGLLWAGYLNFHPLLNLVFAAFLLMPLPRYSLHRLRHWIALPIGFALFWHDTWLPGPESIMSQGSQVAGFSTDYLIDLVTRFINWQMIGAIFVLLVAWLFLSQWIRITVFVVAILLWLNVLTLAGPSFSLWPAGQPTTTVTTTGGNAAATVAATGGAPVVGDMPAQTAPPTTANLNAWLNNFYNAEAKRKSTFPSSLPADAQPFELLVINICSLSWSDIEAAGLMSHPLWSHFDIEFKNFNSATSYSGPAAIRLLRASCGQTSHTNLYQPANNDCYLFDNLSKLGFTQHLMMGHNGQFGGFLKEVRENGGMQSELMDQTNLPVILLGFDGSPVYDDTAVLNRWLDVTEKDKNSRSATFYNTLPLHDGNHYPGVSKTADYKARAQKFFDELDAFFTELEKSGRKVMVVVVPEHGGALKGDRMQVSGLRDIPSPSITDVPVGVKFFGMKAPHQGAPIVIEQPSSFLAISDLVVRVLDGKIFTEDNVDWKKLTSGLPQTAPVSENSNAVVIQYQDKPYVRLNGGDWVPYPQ
Test: two-hybrid; Bacterial adenylate cyclase (T25/T18) complementation in E. coli cya BTH101; blue colonies on LB-agar with X-gal and IPTG; more stringent: growth and blue colour on M63B1-agar with 0.4% maltose

BcsA^NTD (two-hybrid fusion) (E. coli 1094) (domain or fragment)
binding: binds
